These are yes or no findings as the source states them, for the method shown. Binding seen in cells or lysates may run through a third protein. Some entries that bind do so weakly or less than the wild type.
Target: Neuropilin 1 (NRP1) (human (endogenous in ASCs)) (UniProt O14786)
Test: co-IP; ASCs untreated or treated with 20 ng/ml KGF for 5 min, lysed in RIPA buffer; 800 ug lysate immunoprecipitated with anti-NRP1 antibody overnight at 4°C, Protein A/G PLUS-Agarose; blotted with anti-FGF7 and anti-NRP1; only the binder purified

By UniProt entry, the sequences of proteins in these tests, tags left out. Residues count along the entry.
UniProt O14786, residues 22-923: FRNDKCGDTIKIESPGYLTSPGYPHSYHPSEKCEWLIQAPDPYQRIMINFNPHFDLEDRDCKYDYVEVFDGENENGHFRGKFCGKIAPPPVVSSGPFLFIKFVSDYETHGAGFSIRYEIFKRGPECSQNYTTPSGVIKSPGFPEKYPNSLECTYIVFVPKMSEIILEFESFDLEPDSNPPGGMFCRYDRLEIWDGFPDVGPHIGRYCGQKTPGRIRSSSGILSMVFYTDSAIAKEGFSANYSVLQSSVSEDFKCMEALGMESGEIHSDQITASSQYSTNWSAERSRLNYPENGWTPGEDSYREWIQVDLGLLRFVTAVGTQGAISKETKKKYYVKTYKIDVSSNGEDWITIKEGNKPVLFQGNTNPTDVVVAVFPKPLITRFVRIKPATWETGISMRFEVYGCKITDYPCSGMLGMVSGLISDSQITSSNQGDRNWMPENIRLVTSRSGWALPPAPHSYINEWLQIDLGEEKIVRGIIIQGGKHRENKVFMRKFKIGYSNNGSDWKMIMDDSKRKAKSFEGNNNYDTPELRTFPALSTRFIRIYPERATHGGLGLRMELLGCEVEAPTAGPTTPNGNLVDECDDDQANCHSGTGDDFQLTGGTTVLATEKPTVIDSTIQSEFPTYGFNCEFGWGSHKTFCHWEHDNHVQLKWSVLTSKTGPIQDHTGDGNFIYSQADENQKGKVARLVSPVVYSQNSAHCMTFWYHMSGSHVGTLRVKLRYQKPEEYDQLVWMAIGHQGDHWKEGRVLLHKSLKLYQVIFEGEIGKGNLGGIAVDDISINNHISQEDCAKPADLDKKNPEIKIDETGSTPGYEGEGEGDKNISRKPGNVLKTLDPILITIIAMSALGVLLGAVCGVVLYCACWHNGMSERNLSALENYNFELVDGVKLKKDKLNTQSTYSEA

binding: binds
B1: Keratinocyte growth factor (KGF) (ligand, UniProt P21781 32-194)
chain: CNDMTPEQMATNVNCSSPERHTRSYDYMEGGDIRVRRLFCRTQWYLRIDKRGKVKGTQEMKNNYNIMEIRTVAVGIVAIKGVESEFYLAMNKEGKLYAKKECNEDCNFKELILENHYNTYASAKWTHNGGEMFVALNQKGIPVRGKKTKKEQKTAHFLPMAIT
